Assay results as given in the supplement of paper PMC12067093, “Discovery and optimisation of a covalent ligand for TRIM25 and its application to targeted protein ubiquitination” (Chemical Science, 2025).
Some of the results follow.

Sequences of proteins named here, by UniProt entry; tags and fusion partners are left off. A change or cut given only in a name is not applied to a line headed by its entry.
UniProt O95782: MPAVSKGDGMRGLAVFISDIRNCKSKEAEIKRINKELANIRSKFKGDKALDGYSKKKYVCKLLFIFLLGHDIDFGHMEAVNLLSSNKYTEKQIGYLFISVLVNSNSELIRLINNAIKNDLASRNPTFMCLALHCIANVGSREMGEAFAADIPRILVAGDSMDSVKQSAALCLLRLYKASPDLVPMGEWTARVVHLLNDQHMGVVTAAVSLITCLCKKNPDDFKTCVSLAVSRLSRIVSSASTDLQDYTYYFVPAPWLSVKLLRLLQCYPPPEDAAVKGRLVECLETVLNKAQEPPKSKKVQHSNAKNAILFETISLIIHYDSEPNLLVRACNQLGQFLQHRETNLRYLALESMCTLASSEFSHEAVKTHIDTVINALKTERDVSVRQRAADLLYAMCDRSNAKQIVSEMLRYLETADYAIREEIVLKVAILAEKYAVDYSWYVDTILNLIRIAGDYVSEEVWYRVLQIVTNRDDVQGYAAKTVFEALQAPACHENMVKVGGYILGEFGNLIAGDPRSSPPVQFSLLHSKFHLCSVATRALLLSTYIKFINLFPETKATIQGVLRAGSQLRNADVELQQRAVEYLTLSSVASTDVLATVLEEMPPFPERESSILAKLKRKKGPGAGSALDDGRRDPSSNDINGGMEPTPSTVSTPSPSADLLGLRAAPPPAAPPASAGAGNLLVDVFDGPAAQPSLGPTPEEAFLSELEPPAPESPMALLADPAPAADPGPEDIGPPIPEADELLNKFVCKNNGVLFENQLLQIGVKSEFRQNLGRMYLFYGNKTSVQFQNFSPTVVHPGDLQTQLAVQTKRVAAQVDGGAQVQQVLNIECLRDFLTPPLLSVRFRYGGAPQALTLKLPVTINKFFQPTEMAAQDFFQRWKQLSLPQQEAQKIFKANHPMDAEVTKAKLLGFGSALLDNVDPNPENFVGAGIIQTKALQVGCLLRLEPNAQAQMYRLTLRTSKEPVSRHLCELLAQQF
UniProt Q96NW4, whole entry, looked up: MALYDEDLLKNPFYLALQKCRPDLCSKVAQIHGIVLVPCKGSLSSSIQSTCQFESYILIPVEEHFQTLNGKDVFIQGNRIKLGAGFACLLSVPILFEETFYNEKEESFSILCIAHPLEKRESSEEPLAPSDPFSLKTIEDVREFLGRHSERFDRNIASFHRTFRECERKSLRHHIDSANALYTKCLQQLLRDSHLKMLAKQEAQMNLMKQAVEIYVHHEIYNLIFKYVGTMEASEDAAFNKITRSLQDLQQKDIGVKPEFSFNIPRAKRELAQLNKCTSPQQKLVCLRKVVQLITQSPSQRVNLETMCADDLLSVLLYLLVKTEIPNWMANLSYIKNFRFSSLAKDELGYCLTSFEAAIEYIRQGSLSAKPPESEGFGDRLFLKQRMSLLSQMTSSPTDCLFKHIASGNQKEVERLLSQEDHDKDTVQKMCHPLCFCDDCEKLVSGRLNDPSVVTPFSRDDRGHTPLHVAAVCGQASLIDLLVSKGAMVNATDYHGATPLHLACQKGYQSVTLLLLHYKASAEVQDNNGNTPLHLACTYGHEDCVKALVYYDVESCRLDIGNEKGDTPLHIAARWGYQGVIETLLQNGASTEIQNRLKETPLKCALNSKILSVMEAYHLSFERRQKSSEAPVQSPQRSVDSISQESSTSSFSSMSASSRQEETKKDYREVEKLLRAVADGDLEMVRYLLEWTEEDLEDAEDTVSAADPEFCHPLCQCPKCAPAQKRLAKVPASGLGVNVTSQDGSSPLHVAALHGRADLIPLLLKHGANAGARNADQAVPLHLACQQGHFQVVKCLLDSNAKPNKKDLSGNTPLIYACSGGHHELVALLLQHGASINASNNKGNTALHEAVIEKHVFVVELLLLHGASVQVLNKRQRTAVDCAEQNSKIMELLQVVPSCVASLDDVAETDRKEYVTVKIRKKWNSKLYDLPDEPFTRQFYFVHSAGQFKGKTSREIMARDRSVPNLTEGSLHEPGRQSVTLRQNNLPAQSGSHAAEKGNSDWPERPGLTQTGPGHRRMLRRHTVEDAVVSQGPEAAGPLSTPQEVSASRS
UniProt Q7Z5R6: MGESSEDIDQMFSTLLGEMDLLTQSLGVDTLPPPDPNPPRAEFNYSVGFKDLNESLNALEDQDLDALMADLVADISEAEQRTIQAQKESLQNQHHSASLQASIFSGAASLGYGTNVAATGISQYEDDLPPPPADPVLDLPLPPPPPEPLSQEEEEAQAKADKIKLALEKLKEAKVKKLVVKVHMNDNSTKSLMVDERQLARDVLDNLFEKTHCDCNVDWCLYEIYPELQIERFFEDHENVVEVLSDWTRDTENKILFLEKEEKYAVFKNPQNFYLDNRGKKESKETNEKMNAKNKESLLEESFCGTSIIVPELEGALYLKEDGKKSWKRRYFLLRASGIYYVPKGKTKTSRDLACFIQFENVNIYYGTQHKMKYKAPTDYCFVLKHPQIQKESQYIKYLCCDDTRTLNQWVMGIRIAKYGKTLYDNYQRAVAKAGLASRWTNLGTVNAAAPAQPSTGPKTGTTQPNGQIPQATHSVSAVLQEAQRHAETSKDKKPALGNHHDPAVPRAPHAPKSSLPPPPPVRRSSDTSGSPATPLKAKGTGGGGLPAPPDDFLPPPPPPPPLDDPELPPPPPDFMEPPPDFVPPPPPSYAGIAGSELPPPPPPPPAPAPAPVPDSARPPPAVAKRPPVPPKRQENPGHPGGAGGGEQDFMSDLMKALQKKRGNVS
UniProt P20073: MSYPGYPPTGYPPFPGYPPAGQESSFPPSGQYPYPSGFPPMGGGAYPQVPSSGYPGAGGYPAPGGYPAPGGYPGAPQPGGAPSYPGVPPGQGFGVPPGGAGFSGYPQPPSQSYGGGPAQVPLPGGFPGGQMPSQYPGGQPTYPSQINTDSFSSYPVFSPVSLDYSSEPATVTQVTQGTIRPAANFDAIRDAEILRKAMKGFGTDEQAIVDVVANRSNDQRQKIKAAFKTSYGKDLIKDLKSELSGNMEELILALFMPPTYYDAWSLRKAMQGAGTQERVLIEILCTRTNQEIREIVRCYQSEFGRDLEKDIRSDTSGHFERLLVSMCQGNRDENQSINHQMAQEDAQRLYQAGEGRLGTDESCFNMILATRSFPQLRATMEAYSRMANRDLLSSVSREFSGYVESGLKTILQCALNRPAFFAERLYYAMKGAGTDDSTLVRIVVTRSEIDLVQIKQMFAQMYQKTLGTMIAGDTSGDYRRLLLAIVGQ
UniProt O14727: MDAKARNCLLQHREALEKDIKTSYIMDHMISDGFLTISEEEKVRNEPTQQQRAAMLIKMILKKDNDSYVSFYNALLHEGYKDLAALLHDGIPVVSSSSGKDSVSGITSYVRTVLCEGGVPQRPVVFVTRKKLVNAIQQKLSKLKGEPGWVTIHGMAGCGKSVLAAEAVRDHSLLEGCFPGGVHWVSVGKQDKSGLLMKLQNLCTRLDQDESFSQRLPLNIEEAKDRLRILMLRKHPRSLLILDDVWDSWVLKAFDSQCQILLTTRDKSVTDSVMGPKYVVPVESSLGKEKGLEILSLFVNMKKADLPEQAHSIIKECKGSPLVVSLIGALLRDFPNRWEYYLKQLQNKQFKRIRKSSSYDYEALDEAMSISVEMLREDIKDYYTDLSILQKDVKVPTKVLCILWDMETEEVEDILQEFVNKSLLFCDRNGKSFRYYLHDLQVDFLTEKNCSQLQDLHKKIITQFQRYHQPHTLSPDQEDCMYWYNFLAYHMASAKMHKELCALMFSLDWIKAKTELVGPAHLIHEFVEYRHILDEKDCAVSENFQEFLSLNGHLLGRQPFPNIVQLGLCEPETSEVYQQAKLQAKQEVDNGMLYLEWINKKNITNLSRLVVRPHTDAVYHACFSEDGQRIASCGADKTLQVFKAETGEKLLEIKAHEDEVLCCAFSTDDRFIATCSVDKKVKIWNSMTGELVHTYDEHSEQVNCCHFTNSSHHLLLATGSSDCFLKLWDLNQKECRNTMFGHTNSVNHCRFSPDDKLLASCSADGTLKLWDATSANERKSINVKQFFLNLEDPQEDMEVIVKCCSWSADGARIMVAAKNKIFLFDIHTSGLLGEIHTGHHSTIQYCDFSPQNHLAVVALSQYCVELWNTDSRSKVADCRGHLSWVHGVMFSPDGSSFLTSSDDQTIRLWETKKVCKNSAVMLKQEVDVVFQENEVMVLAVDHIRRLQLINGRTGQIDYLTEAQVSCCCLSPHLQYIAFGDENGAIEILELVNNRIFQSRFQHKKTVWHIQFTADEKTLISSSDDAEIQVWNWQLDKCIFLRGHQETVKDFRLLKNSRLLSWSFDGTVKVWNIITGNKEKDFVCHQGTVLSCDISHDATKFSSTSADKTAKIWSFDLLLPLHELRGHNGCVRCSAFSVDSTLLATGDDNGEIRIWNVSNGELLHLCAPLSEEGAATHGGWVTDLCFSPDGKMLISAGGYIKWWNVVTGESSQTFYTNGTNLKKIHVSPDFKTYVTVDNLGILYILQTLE
UniProt O94973, whole entry, looked up: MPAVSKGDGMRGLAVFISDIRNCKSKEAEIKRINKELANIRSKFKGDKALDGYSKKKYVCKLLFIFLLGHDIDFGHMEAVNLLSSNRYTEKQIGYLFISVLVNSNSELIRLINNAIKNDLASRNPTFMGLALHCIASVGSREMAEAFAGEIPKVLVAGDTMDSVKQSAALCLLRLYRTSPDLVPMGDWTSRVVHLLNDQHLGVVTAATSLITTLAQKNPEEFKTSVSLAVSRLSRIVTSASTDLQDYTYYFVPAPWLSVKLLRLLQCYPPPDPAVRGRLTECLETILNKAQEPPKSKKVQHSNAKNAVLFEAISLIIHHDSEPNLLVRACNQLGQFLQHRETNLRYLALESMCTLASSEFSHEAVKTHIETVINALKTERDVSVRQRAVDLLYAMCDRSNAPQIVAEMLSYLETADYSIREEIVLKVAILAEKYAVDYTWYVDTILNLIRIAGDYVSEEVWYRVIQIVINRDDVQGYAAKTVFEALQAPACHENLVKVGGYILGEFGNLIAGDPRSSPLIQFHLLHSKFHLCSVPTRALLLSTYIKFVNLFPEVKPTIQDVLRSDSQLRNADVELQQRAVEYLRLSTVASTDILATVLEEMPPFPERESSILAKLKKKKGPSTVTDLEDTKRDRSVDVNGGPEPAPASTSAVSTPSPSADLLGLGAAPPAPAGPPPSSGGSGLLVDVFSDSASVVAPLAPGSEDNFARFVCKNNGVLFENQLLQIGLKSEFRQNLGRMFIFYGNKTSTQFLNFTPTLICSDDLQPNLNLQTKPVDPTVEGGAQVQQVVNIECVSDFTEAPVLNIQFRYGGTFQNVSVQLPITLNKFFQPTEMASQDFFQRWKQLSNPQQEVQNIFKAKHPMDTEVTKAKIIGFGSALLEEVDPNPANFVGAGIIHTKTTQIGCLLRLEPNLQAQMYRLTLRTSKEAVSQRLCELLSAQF
UniProt Q4KMQ2: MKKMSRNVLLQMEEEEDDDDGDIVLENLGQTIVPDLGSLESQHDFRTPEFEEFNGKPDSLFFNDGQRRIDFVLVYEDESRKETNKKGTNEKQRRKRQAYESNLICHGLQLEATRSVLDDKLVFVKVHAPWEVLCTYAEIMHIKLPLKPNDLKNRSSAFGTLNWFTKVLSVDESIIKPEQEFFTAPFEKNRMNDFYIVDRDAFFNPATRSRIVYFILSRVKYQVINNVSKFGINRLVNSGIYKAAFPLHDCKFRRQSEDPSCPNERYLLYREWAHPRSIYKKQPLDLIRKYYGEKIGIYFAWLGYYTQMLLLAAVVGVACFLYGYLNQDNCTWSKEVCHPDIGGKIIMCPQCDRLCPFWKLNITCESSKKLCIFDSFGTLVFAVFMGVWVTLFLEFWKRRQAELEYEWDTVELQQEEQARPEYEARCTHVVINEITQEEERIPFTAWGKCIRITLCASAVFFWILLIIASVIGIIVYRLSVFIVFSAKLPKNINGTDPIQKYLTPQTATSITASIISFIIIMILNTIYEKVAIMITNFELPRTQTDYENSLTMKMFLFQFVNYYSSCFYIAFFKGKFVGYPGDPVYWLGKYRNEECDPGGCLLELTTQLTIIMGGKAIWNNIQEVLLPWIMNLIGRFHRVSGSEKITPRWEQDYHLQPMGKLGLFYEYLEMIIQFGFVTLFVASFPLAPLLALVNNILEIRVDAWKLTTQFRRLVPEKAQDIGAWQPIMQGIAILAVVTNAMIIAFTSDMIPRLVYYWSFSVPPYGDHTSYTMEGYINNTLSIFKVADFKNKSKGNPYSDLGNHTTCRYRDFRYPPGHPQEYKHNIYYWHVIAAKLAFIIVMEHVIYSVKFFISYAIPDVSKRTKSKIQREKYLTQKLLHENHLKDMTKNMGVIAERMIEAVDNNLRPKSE
UniProt Q9NRW3: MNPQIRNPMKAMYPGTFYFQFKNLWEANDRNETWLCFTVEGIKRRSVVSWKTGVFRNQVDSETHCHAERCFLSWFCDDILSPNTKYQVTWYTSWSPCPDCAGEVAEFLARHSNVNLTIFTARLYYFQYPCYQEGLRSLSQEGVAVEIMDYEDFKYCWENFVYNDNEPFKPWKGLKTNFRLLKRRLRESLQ

Compound: CC1Cc2ccccc2N1C(=O)C1CCCN(C1)C(=O)CCl (mixture of isomers) [TRIM25 ligand 11 (diastereomer mixture)]
Assay: probe-labelled cysteine peptide fold change vs DMSO (competition) (log2 fold change); higher = less target engagement (more negative = stronger competition)
Details: THP-1, incubation time: 4 h
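Note: competitive chemoproteomic profiling in live THP-1 cells with an iodoacetamide desthiobiotin (IA-DTB) probe, comparing probe-labelled peptide intensities in compound-treated cells against DMSO-treated controls.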

Target: ANKS1A_Q92625_211_MLLNAHPNLLSCNTK (UniProt Q92625)
- probe-labelled cysteine peptide fold change (10 µM): 0.0536
- probe-labelled cysteine peptide fold change (50 µM): 0.0941

Target: ANP32B_Q92688_123_SLDLFNCEVTNLNDYRESVFK (UniProt Q92688)
- probe-labelled cysteine peptide fold change (10 µM): -0.406
- probe-labelled cysteine peptide fold change (50 µM): -0.183

Target: ANKRD44_Q8N8A2_649_TPLHASVINGHTLCLR (UniProt Q8N8A2)
- probe-labelled cysteine peptide fold change (10 µM): 0.297
- probe-labelled cysteine peptide fold change (50 µM): 0.203

Target: AP2A1_O95782_213_VVHLLNDQHMGVVTAAVSLITCLCK (UniProt O95782)
- probe-labelled cysteine peptide fold change (10 µM): -0.123
- probe-labelled cysteine peptide fold change (50 µM): 0.0848

Target: ANXA11_P50995_294_GVGTDEACLIEILASR (UniProt P50995)
- probe-labelled cysteine peptide fold change (10 µM): -0.0864
- probe-labelled cysteine peptide fold change (50 µM): -0.027

Target: ANKRD27_Q96NW4_720_CAPAQK (UniProt Q96NW4)
- probe-labelled cysteine peptide fold change (10 µM): 0.0291
- probe-labelled cysteine peptide fold change (50 µM): -0.159

Target: AP4M1_O00189_235_IGLTEEFCVGK (UniProt O00189)
- probe-labelled cysteine peptide fold change (10 µM): -0.0152
- probe-labelled cysteine peptide fold change (50 µM): -0.0323

Target: APBB1IP_Q7Z5R6_381_YKAPTDYCFVLK (UniProt Q7Z5R6)
- probe-labelled cysteine peptide fold change (10 µM): -0.0427
- probe-labelled cysteine peptide fold change (50 µM): -0.0553

Target: ANKHD1_Q8IWZ3_1308_FCELLIHR (UniProt Q8IWZ3)
- probe-labelled cysteine peptide fold change (10 µM): -0.00633
- probe-labelled cysteine peptide fold change (50 µM): 0.106

Target: ANKRD44_Q8N8A2_408_TCLHAAAAGGNVECIK (UniProt Q8N8A2)
- probe-labelled cysteine peptide fold change (10 µM): 0.166
- probe-labelled cysteine peptide fold change (50 µM): -0.0433

Target: APEH_P13798_361_QLGENFSGIYCSLLPLGCWSADSQR (UniProt P13798)
- probe-labelled cysteine peptide fold change (10 µM): -0.171
- probe-labelled cysteine peptide fold change (50 µM): -0.245

Target: ANXA2_P07355_262_EVKGDLENAFLNLVQCIQNK (UniProt P07355)
- probe-labelled cysteine peptide fold change (10 µM): -0.331
- probe-labelled cysteine peptide fold change (50 µM): 0.00394

Target: ANXA7_P20073_285_VLIEILCTR (UniProt P20073)
- probe-labelled cysteine peptide fold change (10 µM): -0.00762
- probe-labelled cysteine peptide fold change (50 µM): 0.0533

Target: ANXA7_P20073_298_CYQSEFGR (UniProt P20073)
- probe-labelled cysteine peptide fold change (10 µM): -0.064
- probe-labelled cysteine peptide fold change (50 µM): 0.0537

Target: ANKLE2_Q86XL3_844_LDQDVLAALECADVDPHQFPAVHR (UniProt Q86XL3)
- probe-labelled cysteine peptide fold change (10 µM): 0.0361
- probe-labelled cysteine peptide fold change (50 µM): -0.0206

Target: ANKHD1_Q8IWZ3_1390_EVNQFPSDIECMR (UniProt Q8IWZ3)
- probe-labelled cysteine peptide fold change (10 µM): 0.119
- probe-labelled cysteine peptide fold change (50 µM): 0.252

Target: ANKHD1_Q8IWZ3_643_ATANNDHTVVSLACAGGHLAVVELLLAHGADPTHR (UniProt Q8IWZ3)
- probe-labelled cysteine peptide fold change (10 µM): 0.00811
- probe-labelled cysteine peptide fold change (50 µM): 0.121

Target: ANXA4_P09525_315_VLLVLCGGDD (UniProt P09525)
- probe-labelled cysteine peptide fold change (10 µM): 0.177
- probe-labelled cysteine peptide fold change (50 µM): 0.081

Target: ANKRD44_Q8N8A2_834_FIGNPFTPLHCAIINDHGNCASLLLGAIDSSIVSCRDDK (UniProt Q8N8A2)
- probe-labelled cysteine peptide fold change (10 µM): -0.128
- probe-labelled cysteine peptide fold change (50 µM): -0.105

Target: APAF1_O14727_450_NCSQLQDLHK (UniProt O14727)
- probe-labelled cysteine peptide fold change (10 µM): 0.21
- probe-labelled cysteine peptide fold change (50 µM): 0.0548

Target: ANKRD44_Q8N8A2_368_CGIHSMFPLHLAALNAHSDCCR (UniProt Q8N8A2)
- probe-labelled cysteine peptide fold change (10 µM): -0.0477
- probe-labelled cysteine peptide fold change (50 µM): 0.0132

Target: AP2A2_O94973_396_AVDLLYAMCDR (UniProt O94973)
- probe-labelled cysteine peptide fold change (10 µM): 0.145
- probe-labelled cysteine peptide fold change (50 µM): 0.253

Target: APAF1_O14727_1083+1091_DFVCHQGTVLSCDISHDATK (UniProt O14727)
- probe-labelled cysteine peptide fold change (10 µM): 0.161
- probe-labelled cysteine peptide fold change (50 µM): 0.0542

Target: AP2A1_O95782_225_TCVSLAVSR (UniProt O95782)
- probe-labelled cysteine peptide fold change (10 µM): 0.135
- probe-labelled cysteine peptide fold change (50 µM): 0.0067

Target: ANKRD28_O15084_472_GCTPLHYAATSDTDGK (UniProt O15084)
- probe-labelled cysteine peptide fold change (10 µM): 0.0453
- probe-labelled cysteine peptide fold change (50 µM): 0.00836

Target: ANKRD46_Q86W74_85_FGADLLATDYQGNTALHLCGHVDTIQFLVSNGLK (UniProt Q86W74)
- probe-labelled cysteine peptide fold change (10 µM): 0.103
- probe-labelled cysteine peptide fold change (50 µM): 0.205

Target: AP2B1_P63010_129_CLKDEDPYVR (UniProt P63010)
- probe-labelled cysteine peptide fold change (10 µM): -0.189
- probe-labelled cysteine peptide fold change (50 µM): -0.166

Target: ANKRD28_O15084_838_TPLHAAAFTDHVECLQLLLSHNAQVNSVDSTGK (UniProt O15084)
- probe-labelled cysteine peptide fold change (10 µM): -0.0389
- probe-labelled cysteine peptide fold change (50 µM): -0.0313

Target: AP3D1_O14617_137_DLSSPSQYDTGVALTGLSCFVTPDLAR (UniProt O14617)
- probe-labelled cysteine peptide fold change (10 µM): -0.0501
- probe-labelled cysteine peptide fold change (50 µM): -0.164

Target: ANO6_Q4KMQ2_105_RQAYESNLICHGLQLEATR (UniProt Q4KMQ2)
- probe-labelled cysteine peptide fold change (10 µM): -0.0665
- probe-labelled cysteine peptide fold change (50 µM): 0.106

Target: ANO6_Q4KMQ2_261_RQSEDPSCPNER (UniProt Q4KMQ2)
- probe-labelled cysteine peptide fold change (10 µM): -0.0531
- probe-labelled cysteine peptide fold change (50 µM): -0.169

Target: APOBEC3C_Q9NRW3_65_NQVDSETHCHAER (UniProt Q9NRW3)
- probe-labelled cysteine peptide fold change (10 µM): 0.15
- probe-labelled cysteine peptide fold change (50 µM): 0.0622

Target: AP2A2_O94973_932_LCELLSAQF (UniProt O94973)
- probe-labelled cysteine peptide fold change (10 µM): -0.0269
- probe-labelled cysteine peptide fold change (50 µM): 0.118

Target: ANKRD17_O75179_1622_ISSCSDESSNSNSSR (UniProt O75179)
- probe-labelled cysteine peptide fold change (10 µM): 0.371
- probe-labelled cysteine peptide fold change (50 µM): 0.268

Target: ANKRD27_Q96NW4_795_CLLDSNAK (UniProt Q96NW4)
- probe-labelled cysteine peptide fold change (10 µM): -0.0492
- probe-labelled cysteine peptide fold change (50 µM): -0.0447

Target: APBB1IP_Q7Z5R6_213_THCDCNVDWCLYEIYPELQIER (UniProt Q7Z5R6)
- probe-labelled cysteine peptide fold change (10 µM): 0.00469
- probe-labelled cysteine peptide fold change (50 µM): -0.008

Target: APEX1_P27695_208_KPLVLCGDLNVAHEEIDLR (UniProt P27695)
- probe-labelled cysteine peptide fold change (10 µM): 0.0664
- probe-labelled cysteine peptide fold change (50 µM): -0.017

Target: ANKRD28_O15084_898_NTALHLACSK (UniProt O15084)
- probe-labelled cysteine peptide fold change (10 µM): 0.0584
- probe-labelled cysteine peptide fold change (50 µM): 0.284
